The values below come from article PMC3033906.

By UniProt entry, the sequences of proteins in these tests, tags left out.
UniProt Q8C863: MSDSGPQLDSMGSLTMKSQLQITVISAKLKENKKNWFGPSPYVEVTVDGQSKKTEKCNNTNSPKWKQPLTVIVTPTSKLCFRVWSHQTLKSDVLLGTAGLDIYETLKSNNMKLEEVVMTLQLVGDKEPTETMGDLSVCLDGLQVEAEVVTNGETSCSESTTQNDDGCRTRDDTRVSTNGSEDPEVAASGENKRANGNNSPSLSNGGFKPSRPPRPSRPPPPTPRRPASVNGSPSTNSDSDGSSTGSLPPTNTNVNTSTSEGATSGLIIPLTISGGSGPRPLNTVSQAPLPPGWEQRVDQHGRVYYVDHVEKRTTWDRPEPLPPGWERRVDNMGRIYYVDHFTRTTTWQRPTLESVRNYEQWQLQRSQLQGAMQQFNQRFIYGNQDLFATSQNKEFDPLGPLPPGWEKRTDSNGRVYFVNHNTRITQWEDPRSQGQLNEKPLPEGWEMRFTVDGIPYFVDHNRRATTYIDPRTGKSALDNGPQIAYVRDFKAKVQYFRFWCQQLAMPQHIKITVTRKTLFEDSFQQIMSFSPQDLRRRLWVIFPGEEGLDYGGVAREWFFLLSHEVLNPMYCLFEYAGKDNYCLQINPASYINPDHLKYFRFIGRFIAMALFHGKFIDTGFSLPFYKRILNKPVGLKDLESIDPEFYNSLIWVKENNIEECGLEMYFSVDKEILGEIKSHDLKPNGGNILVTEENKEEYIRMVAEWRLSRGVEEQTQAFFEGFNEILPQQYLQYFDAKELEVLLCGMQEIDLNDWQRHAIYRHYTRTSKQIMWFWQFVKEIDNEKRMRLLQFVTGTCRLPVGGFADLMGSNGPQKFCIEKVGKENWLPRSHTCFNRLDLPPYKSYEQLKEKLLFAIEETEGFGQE

Assay [1] addresses rLuc-Itch (UniProt Q8C863). Put plainly: FRET or BRET; BRET in living HEK-293T cells co-transfected with a constant amount of rLuc-Itch and various amounts of GFP fusion; coelenterazine 5 µM; saturation curves.
For assay [2], the target named is GST-Itch WT (UniProt Q8C863). Briefly: pull-down; 20 µg GST-fusion protein on glutathione Sepharose 4B incubated with extracts of transfected HEK-293T cells, 16 hours at 4°C, 20 mM Hepes pH 7.4, 150 mM NaCl, 1% Triton X-100; blot with anti-myc or anti-GFP; densitometry of four experiments for GST-Itch-WW; only the target purified.

Results are given in words; binding and its absence hold for the method and conditions named. In cells and extracts the contact can be indirect. Some binding calls cover weakened binding; strength is not graded here. Where a sequence is shown, tags or fusion partners need not be part of it.

B1: GFP-LITAF Y61A (protein, UniProt Q9JLJ0 1-161)
chain: MSAPGPYQAAAGPSVVPTAPPTYEETVGVNSYYPTPPAPMPGPATGLITGPDGKGMNPPSAYTQPVPVPNANAIAVQTVYVQQPVSFYDRPVQMCCPSCSKMIVTQLSYNAGALTWLSCGSLCLLGCVAGCCFIPFCVDALQDVDHYCPNCKALLGTYKRL
As for B1, in assay [1], the binding result is on record as “binds”.

B2: GFP-LITAF Y23,61A (protein, UniProt Q9JLJ0 1-161)
chain: MSAPGPYQAAAGPSVVPTAPPTAEETVGVNSYYPTPPAPMPGPATGLITGPDGKGMNPPSAYTQPVPVPNANAIAVQTVYVQQPVSFYDRPVQMCCPSCSKMIVTQLSYNAGALTWLSCGSLCLLGCVAGCCFIPFCVDALQDVDHYCPNCKALLGTYKRL
B2: the binding entry in assay [2] and in assay [1] was “no binding” each time.
